Source: publication PMC9929473, “Ensembles of human myosin-19 bound to calmodulin and regulatory light chain RLC12B drive multimicron transport” (The Journal of Biological Chemistry, 2023)
No constants are given. Whether binding was seen depends on the method and setting. In cells and extracts the contact can be indirect. These calls come from enrichment with a bait or labelling near it, and not all partners need be listed. No binding means not detected with the bait.

The chains behind the UniProt entries cited, without tags or fusion partners.
UniProt O14950: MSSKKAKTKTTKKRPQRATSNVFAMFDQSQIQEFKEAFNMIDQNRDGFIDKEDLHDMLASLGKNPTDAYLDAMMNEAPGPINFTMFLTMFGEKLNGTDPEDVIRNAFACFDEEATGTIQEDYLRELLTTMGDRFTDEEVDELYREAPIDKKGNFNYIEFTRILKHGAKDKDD
UniProt P60660: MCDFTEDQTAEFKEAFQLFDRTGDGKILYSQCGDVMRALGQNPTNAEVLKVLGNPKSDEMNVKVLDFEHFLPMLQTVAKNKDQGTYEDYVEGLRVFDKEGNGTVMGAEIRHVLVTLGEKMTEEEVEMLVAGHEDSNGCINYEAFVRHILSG

How the values were obtained:
[1] = biological target: Myo19-3xIQ (human myosin-19, amino acids 1–851) with N-terminal FLAG and C-terminal Strep-Tactin tag (human) (UniProt Q96H55); test: affinity purification with mass spectrometry; as a1 but with 1 mM CaCl2 added instead of EGTA
[2] = biological target: Myo19-3xIQ (human myosin-19, amino acids 1–851) with N-terminal FLAG and C-terminal Strep-Tactin tag (human) (UniProt Q96H55); test: affinity purification with mass spectrometry; FLAG-Myo19-3xIQ-Strep expressed in Expi293; tandem Strep-Tactin XT and anti-FLAG purification from lysate; 50 mM Hepes pH 7.5, 150 mM NaCl, 5 mM MgCl2, 1 mM EGTA, 5 mM ATP in lysis; LC-MS/MS of the 12 to 30 kDa range; motor domain (MD) as control sample

| binding [1] | binding [2] | Substance |
| --- | --- | --- |
| binds | binds | Regulatory light chain RLC12B (MYL12B), endogenous in Expi293 cells (from UniProt O14950 1-172) |
| no binding | no binding | Cytoplasmic essential light chain MYL6 (ELC6), endogenous in Expi293 cells (from UniProt P60660 1-151) |
